Data on two substances can be found in paper PMC7048933.

The chains behind the UniProt entries cited, without tags or fusion partners.
UniProt Q92830: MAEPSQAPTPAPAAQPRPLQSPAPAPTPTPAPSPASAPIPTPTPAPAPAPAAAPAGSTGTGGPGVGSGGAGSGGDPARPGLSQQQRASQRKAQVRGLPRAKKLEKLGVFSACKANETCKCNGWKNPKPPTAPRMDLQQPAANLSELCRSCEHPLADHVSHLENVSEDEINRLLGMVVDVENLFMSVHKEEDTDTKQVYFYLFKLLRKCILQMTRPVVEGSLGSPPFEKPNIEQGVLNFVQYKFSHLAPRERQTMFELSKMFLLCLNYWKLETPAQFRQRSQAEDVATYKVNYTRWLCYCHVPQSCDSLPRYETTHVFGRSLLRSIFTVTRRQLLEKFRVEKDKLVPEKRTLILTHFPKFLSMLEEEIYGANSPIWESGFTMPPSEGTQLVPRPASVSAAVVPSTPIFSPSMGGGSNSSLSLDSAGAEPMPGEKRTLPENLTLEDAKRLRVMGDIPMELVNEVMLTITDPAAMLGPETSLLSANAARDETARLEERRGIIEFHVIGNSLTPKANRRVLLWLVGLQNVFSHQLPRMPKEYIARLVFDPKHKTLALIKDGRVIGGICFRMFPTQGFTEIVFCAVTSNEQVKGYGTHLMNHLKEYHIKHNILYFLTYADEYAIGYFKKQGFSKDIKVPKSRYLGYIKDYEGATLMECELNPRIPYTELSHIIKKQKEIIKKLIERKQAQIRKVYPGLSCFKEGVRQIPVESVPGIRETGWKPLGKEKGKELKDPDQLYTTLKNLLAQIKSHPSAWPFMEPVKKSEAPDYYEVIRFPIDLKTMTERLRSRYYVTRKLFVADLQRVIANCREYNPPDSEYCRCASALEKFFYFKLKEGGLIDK
UniProt O15379: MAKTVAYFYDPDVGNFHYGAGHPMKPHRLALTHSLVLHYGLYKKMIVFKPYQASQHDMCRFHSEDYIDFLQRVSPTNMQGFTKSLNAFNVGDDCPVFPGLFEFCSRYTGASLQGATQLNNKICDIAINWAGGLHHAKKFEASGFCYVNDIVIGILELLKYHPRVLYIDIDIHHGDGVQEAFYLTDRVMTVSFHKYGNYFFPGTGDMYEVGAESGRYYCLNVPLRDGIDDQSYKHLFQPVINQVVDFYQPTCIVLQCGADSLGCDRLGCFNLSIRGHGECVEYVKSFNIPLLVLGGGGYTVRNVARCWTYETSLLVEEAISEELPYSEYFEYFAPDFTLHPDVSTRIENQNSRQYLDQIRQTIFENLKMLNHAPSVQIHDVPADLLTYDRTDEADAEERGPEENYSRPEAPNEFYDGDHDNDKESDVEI

No constants are given. Whether binding was seen depends on the method and setting. Binding seen in cells or lysates may run through a third protein. Binding calls can cover weak binding; strength is not graded here.

Assay [1] concerns the target CDM-CBX4, chromodomain mutant of CBX4 (human) (UniProt O00257). The experiment in a line: co-IP; Supplementary Fig. 10B, C: WT-CBX4, CDM-CBX4 and ΔTM-CBX4 with GCN5 and HDAC3; method, cells and tags not told in the text shown (co-IP is the only binding method of the methods section).
For assay [2], the target named is ΔTM-CBX4 mutant of CBX4 (human) (UniProt O00257). The description is as above.

For “HA-tagged GCN5 (from UniProt Q92830 1-837)”, the binding result in assay [1] and in assay [2] was “binds” each time.

For the substance “HDAC3 (from UniProt O15379 1-428) (enzyme)”, in assay [1], the binding entry is given as “binds”.
